PubChem BioAssay AID652243, Drosophila RNAi Screening Center – 2013
The screen tested about 24,000 reagents; below is a random part of those that have a named target and a result. Over the whole deposit, 246 (1%) were called active. 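Plates not normalised; calls are printed but the firefly/Renilla ratio behind them is not deposited; fold cut for lowering reported inconsistently.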 Raw values are not corrected between plates. Names joined by + are all predicted targets of the reagent. No sequences are given here. Not stated in the record: the amount of reagent.

Test: 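Knock-downs that decrease or increase androgen receptor reporter signal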 (primary screen)
System: Drosophila S2R+ cells
Knock-down reagent: long dsRNA against Drosophila genes
Duration: 72 h (48 h, then 24 h hormone)
Challenge: synthetic androgen R1881 at 10 nM for 24 h
Detection: 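Firefly light from an androgen-responsive reporter and Renilla control light per well, raw and unnormalised, for each of two replicates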
Scale: firefly reporter light: higher = more light from androgen-responsive reporter; Renilla control light: higher = more constitutive control signal (cell number, transfection)
Call rule: 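Hit when the log firefly-to-Renilla ratio dropped or increased by a fixed fold versus the mean of GFP or LacZ controls across duplicate plates; lowering cut given as 1.5 and as 3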
Calls: active = hit: reporter lowered or raised; inactive = no hit

| gene | PubChem SID | firefly reporter light, replicate 1 | firefly reporter light, replicate 2 | Renilla control light, replicate 1 | Renilla control light, replicate 2 | activity call |
| --- | --- | --- | --- | --- | --- | --- |
| Mpp6 | SID104182961 | 1.15e5 | 1.49e5 | 1.34e6 | 1.72e6 | inactive |
| Mpp6 | SID104208278 | 4.83e5 | 3.77e5 | 1.24e6 | 1.43e6 | inactive |
| CG32462 + asRNA:CR43426 | SID104191643 | 62170 | 53206 | 4.95e5 | 3.91e5 | inactive |
| Usp32 | SID104190771 | 1.77e5 | 1.58e5 | 1.81e6 | 1.86e6 | inactive |
| Acn | SID104181854 | 5.37e5 | 7.95e5 | 8.59e5 | 9.86e5 | inactive |
| Acn | SID104207789 | 4.01e5 | 5.21e5 | 1.00e6 | 8.04e5 | inactive |
| l(2)37Cd | SID104181861 | 6.87e5 | 8.12e5 | 1.35e6 | 1.68e6 | inactive |
| HipHop | SID104190526 | 44824 | 45398 | 4.21e5 | 3.08e5 | inactive |
| Cka | SID104183268 | 3.15e5 | 3.28e5 | 2.77e6 | 2.84e6 | inactive |
| Cka | SID104202217 | 3.93e5 | 6.94e5 | 4.87e5 | 7.14e5 | inactive |

The list goes on, starting with the last 2 of the part before.
| gene | PubChem SID | firefly reporter light, replicate 1 | firefly reporter light, replicate 2 | Renilla control light, replicate 1 | Renilla control light, replicate 2 | activity call |
| --- | --- | --- | --- | --- | --- | --- |
| Cka | SID104183268 | 3.15e5 | 3.28e5 | 2.77e6 | 2.84e6 | inactive |
| Cka | SID104202217 | 3.93e5 | 6.94e5 | 4.87e5 | 7.14e5 | inactive |
| CG13488 | SID104183925 | 1.18e5 | 2.70e5 | 1.22e6 | 1.55e6 | inactive |
| Gr58b | SID104183932 | 2.73e5 | 2.85e5 | 1.78e6 | 1.26e6 | inactive |
| CG14113 | SID104189908 | 5.69e5 | 4.60e5 | 3.03e6 | 2.69e6 | inactive |
| PAN2 | SID104186907 | 8.30e5 | 1.04e6 | 1.17e6 | 1.18e6 | inactive |
| LManI | SID104182630 | 2.19e5 | 2.23e5 | 1.80e6 | 1.70e6 | inactive |
| LManI | SID104203377 | 6.58e5 | 7.49e5 | 5.00e5 | 7.91e5 | inactive |
| LManI | SID104216591 | 5.48e5 | 6.67e5 | 2.08e6 | 2.08e6 | inactive |
| CG10467 + CG10469 | SID104207189 | 3.86e5 | 3.82e5 | 1.29e6 | 1.26e6 | inactive |
| Shmt | SID104198056 | 1.91e5 | 2.51e5 | 2.13e6 | 1.76e6 | inactive |
| kni | SID104202450 | 4.62e5 | 6.04e5 | 1.20e6 | 1.41e6 | inactive |
| kni | SID104208518 | 8.43e5 | 7.86e5 | 1.43e6 | 1.51e6 | inactive |
| CG33170 | SID104201852 | 8.71e5 | 8.82e5 | 1.22e6 | 1.33e6 | inactive |
| Doa | SID104193684 | 1.71e5 | 1.72e5 | 1.71e5 | 1.47e5 | inactive |
| Doa | SID104193685 | 70199 | 1.78e5 | 2.33e5 | 3.25e5 | inactive |
| Doa | SID104193688 | 1.85e5 | 1.09e5 | 1.80e5 | 1.08e5 | inactive |
| Doa | SID104193689 | 3.13e5 | 3.30e5 | 4.77e5 | 8.54e5 | inactive |
| Doa | SID104196442 | 1.24e5 | 1.06e5 | 9.67e5 | 7.36e5 | inactive |
| Doa | SID104205175 | 3.92e5 | 3.71e5 | 6.00e5 | 5.86e5 | inactive |
| Doa | SID104214178 | – | – | – | – | inactive |
| Doa | SID104214179 | – | – | – | – | inactive |
